For experiment [1], the target named is HIF-1α (source not stated for the experiment) (UniProt Q16665). Briefly: co-IP; HEK293 lysates (passive-lysis buffer, gentle sonication), antibody with protein A sepharose beads, immunoblot; normoxia, many panels with MG132; some panels with co-expressed PLD1, PLD1-PH, PHD2 or VHL or with DFX; for PLD1-PH under normoxia and hypoxia. For orientation: A western blot detects proteins with antibodies after separation by electrophoresis.

Protein sequences, listed by entry. Tags and fused reporters are not part of them.
UniProt Q16665: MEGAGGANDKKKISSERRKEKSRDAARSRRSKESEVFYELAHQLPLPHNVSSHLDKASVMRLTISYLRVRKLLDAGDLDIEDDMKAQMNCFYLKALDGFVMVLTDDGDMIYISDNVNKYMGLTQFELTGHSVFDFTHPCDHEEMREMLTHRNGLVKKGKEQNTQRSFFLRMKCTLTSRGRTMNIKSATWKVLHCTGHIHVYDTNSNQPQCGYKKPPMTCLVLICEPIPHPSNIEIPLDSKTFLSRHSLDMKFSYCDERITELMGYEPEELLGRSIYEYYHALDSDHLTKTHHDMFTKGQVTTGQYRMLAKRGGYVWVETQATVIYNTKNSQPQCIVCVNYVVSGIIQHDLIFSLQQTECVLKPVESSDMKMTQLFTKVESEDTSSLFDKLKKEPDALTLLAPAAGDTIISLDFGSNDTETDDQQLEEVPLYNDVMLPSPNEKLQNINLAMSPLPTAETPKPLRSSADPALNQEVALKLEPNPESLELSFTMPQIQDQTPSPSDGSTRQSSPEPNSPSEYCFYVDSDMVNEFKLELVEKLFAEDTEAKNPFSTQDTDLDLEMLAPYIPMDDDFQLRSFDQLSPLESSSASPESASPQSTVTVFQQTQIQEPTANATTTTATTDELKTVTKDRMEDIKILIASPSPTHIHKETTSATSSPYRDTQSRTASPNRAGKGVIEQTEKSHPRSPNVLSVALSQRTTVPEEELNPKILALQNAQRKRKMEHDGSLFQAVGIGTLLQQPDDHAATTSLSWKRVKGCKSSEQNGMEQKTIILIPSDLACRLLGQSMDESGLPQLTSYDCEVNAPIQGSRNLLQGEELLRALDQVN
UniProt Q9GZT9: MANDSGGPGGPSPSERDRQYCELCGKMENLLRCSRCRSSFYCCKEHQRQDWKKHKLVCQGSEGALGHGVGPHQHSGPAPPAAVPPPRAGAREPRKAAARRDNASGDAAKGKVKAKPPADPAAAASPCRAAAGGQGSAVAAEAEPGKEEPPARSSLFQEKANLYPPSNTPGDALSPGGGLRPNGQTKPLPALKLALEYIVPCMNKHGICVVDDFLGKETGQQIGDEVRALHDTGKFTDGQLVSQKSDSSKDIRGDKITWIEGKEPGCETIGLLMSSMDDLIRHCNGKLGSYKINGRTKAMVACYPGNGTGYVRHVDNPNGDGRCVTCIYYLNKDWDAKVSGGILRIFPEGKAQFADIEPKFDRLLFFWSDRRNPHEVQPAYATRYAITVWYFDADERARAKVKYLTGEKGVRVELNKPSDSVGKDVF
UniProt P40337: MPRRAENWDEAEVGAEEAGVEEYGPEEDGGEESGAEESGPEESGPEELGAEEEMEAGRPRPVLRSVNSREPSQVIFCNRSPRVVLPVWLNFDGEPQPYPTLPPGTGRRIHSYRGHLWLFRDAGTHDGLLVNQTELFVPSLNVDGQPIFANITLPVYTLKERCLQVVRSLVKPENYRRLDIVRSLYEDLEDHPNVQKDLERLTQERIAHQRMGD

In experiment [2] the target is PHD2 (HIF prolyl hydroxylase 2), transfected (UniProt Q9GZT9). Described as above.
The target of experiment [3] is Catalytically inactive mutant PLD1 (UniProt Q13393). The experiment is described as above.
In experiment [4] the target is β-domain of VHL (HA-VHL fragment). Described as above.
For experiment [5], the target named is GST-VHL β-domain fragment. Kind of experiment: pull-down; GST fusion on glutathione-sepharose 4B beads mixed with in vitro-translated protein, 4°C, 1 h, washed five times with PBS containing 1% triton-X 100; only the target purified.

Results are given in words; binding and its absence hold for the method and conditions named. In cells and extracts the contact can be indirect. A result given as binding can be weak or reduced; the word gives no strength.

On to “Catalytically inactive mutant PLD1 (from UniProt Q13393) (enzyme)”, for which the binding result in experiment [1] and in experiment [2] was “binds” throughout.

As to “von Hippel-Lindau protein (HA-VHL), wild type (from UniProt P40337 1-213)”, the binding result in experiment [3] is “binds”.

B1: Phospholipase D1 (PLD1), wild type (enzyme, UniProt Q13393 1-1074)
chain: MSLKNEPRVNTSALQKIAADMSNIIENLDTRELHFEGEEVDYDVSPSDPKIQEVYIPFSAIYNTQGFKEPNIQTYLSGCPIKAQVLEVERFTSTTRVPSINLYTIELTHGEFKWQVKRKFKHFQEFHRELLKYKAFIRIPIPTRRHTFRRQNVREEPREMPSLPRSSENMIREEQFLGRRKQLEDYLTKILKMPMYRNYHATTEFLDISQLSFIHDLGPKGIEGMIMKRSGGHRIPGLNCCGQGRACYRWSKRWLIVKDSFLLYMKPDSGAIAFVLLVDKEFKIKVGKKETETKYGIRIDNLSRTLILKCNSYRHARWWGGAIEEFIQKHGTNFLKDHRFGSYAAIQENALAKWYVNAKGYFEDVANAMEEANEEIFITDWWLSPEIFLKRPVVEGNRWRLDCILKRKAQQGVRIFIMLYKEVELALGINSEYTKRTLMRLHPNIKVMRHPDHVSSTVYLWAHHEKLVIIDQSVAFVGGIDLAYGRWDDNEHRLTDVGSVKRVTSGPSLGSLPPAAMESMESLRLKDKNEPVQNLPIQKSIDDVDSKLKGIGKPRKFSKFSLYKQLHRHHLHDADSISSIDSTSSYFNHYRSHHNLIHGLKPHFKLFHPSSESEQGLTRPHADTGSIRSLQTGVGELHGETRFWHGKDYCNFVFKDWVQLDKPFADFIDRYSTPRMPWHDIASAVHGKAARDVARHFIQRWNFTKIMKSKYRSLSYPFLLPKSQTTAHELRYQVPGSVHANVQLLRSAADWSAGIKYHEESIHAAYVHVIENSRHYIYIENQFFISCADDKVVFNKIGDAIAQRILKAHRENQKYRVYVVIPLLPGFEGDISTGGGNALQAIMHFNYRTMCRGENSILGQLKAELGNQWINYISFCGLRTHAELEGNLVTELIYVHSKLLIADDNTVIIGSANINDRSMLGKRDSEMAVIVQDTETVPSVMDGKEYQAGRFARGLRLQCFRVVLGYLDDPSEDIQDPVSDKFFKEVWVSTAARNATIYDKVFRCLPNDEVHNLIQLRDFINKPVLAKEDPIRAEEELKKIRGFLVQFPFYFLSEESLLPSVGTKEAIVPMEVWT
On to B1, for which, in experiment [4], the binding result is “binds”.

B2: In vitro-translated PLD1 (enzyme, UniProt Q13393 1-1074)
chain: B1 chain
Turning to B2, the binding result in experiment [5] is given as “binds”.

The values above are taken from paper PMC4323006.
